Results are given in words; binding and its absence hold for the method and conditions named. In cells and extracts the contact can be indirect. A yes stands for co-enrichment or nearness to the bait. Other partners may have been found.
Target: EGFR-flag-TurboID (EGFR-TurboID fusion construct, HeLa clone T1) (UniProt P00533)
Assay: proximity labelling

Amino acid sequences for entries named in this document (tags omitted).
UniProt Q01968: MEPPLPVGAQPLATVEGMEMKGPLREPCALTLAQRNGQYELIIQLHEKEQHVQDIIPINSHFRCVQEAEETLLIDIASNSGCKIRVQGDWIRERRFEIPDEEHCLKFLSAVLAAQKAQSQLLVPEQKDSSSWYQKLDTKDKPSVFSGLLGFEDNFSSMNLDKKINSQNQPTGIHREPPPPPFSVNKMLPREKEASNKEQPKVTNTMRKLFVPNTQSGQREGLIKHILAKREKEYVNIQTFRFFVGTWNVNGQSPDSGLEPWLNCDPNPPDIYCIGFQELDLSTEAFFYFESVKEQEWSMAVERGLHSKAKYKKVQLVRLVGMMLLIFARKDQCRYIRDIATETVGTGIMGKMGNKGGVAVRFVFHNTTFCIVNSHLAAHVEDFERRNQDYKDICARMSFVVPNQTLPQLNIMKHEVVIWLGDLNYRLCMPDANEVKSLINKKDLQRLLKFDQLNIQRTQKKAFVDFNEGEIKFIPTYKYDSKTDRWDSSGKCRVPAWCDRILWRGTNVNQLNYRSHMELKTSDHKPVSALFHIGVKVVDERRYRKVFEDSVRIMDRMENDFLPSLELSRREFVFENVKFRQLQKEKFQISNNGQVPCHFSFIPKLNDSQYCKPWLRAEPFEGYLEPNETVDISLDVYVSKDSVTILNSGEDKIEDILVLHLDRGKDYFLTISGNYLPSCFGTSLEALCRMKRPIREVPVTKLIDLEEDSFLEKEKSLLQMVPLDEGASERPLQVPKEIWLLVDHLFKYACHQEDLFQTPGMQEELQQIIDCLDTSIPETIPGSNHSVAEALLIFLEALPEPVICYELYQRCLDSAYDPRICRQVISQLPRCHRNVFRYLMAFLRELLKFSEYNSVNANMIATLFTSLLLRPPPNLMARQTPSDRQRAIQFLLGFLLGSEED
UniProt Q07912: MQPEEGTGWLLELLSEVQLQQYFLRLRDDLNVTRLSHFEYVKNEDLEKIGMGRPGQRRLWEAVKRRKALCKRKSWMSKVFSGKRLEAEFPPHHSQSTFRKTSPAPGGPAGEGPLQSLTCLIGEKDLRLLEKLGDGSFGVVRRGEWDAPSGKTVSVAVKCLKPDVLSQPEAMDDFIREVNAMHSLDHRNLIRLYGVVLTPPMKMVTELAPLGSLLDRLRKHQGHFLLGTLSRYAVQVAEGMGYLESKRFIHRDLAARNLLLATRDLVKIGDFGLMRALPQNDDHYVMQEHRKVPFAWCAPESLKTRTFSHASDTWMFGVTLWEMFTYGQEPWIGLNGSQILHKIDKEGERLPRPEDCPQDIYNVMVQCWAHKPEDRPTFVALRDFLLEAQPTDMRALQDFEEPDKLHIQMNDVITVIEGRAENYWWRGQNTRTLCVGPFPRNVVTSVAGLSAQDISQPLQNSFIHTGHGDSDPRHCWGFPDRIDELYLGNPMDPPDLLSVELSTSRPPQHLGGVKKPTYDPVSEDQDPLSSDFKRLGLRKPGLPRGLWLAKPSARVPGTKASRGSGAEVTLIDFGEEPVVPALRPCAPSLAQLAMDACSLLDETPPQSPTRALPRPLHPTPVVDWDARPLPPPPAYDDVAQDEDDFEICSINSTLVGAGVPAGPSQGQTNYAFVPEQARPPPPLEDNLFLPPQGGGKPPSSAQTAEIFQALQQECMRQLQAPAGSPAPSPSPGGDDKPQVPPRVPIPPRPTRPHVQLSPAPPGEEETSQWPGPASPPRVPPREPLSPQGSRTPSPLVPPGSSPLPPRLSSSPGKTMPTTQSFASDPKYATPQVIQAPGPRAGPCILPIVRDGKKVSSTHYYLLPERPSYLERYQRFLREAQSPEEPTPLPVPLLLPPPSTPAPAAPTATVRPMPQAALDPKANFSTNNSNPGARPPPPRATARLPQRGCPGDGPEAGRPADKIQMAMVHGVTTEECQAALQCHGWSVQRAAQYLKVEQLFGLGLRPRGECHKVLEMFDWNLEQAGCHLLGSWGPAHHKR
UniProt Q92783: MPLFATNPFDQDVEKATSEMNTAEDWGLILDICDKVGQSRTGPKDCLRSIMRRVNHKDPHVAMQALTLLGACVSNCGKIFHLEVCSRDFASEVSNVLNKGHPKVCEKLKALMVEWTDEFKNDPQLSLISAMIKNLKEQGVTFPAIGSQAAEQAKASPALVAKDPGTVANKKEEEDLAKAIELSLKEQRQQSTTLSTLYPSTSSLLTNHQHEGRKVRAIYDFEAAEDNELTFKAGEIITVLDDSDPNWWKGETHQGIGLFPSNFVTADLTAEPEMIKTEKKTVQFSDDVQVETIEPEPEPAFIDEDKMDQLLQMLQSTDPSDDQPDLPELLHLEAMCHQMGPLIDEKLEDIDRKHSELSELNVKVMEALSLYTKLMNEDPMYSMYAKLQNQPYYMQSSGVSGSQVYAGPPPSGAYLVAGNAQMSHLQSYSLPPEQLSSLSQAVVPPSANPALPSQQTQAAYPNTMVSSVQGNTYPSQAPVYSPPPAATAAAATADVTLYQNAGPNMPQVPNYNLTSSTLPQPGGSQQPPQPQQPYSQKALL
UniProt P51692: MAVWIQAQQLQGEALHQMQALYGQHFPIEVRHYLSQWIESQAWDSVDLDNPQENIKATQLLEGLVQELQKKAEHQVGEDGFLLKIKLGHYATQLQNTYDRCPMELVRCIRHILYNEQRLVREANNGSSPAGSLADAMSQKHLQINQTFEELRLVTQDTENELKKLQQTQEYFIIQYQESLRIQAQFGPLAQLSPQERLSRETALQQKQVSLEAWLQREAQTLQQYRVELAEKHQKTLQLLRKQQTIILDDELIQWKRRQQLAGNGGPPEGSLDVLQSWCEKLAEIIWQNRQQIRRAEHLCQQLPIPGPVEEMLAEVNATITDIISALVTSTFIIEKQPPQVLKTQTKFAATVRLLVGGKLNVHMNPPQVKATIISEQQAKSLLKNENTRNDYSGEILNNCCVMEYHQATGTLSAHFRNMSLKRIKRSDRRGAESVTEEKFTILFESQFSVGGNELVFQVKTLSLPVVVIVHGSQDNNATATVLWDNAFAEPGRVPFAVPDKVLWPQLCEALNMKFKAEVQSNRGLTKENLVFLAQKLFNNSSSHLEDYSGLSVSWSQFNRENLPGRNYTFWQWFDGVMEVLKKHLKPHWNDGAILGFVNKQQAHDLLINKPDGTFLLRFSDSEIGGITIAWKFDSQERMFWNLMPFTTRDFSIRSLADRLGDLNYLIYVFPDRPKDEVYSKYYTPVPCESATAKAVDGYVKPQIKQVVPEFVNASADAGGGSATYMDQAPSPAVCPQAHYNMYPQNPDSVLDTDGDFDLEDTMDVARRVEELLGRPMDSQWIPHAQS

| binding | Substance |
| --- | --- |
| binds | HGS (from UniProt O14964 1-777) |
| binds | inositol polyphosphate 5-phosphatase OCRL (from UniProt Q01968 1-901) |
| binds | non-receptor tyrosine kinase TNK2 (from UniProt Q07912 1-1038) |

Second part, the substance before the results:

| Substance | binding |
| --- | --- |
| STAM (from UniProt Q92783 1-540) | binds |
| STAT5B (from UniProt P51692 1-787) | binds |

From paper doi:10.1101/2023.09.13.557663
